Measured values reported in doi:10.1101/2024.01.16.575974.
Results are given in words; binding and its absence hold for the method and conditions named. Some entries that bind do so weakly or less than the wild type. For some assays here: Where a sequence is shown, tags or fusion partners need not be part of it.

Columns and labels:
[1] = molecular target: T1, Escherichia coli FtsE, His-tagged, full length (Escherichia coli (str. K-12, MG1655)) (UniProt P0A9R7); assay: SEC
T1 sequence: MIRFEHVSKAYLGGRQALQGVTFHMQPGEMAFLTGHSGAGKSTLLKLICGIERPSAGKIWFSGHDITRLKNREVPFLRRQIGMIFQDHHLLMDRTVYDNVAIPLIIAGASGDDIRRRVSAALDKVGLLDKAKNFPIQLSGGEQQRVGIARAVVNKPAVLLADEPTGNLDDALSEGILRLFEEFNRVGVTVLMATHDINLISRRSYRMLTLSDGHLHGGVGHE

[2] = molecular target: T1, Escherichia coli FtsE, His-tagged, full length (Escherichia coli (str. K-12, MG1655)); assay: cryo-EM structure
[3] = molecular target: T2, Escherichia coli FtsE E163Q mutant, His-tagged (Escherichia coli (str. K-12, MG1655)) (UniProt P0A9R7); assay: cryo-EM structure
T2 sequence: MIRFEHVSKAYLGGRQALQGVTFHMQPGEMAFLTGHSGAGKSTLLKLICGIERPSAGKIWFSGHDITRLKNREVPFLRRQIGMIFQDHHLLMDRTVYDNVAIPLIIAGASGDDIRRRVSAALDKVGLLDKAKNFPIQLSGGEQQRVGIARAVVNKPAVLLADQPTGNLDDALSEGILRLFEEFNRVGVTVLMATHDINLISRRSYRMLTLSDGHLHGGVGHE

[4] = molecular target: T1, Escherichia coli FtsE, His-tagged, full length (Escherichia coli (str. K-12, MG1655)); assay: negative-staining electron microscopy
[5] = molecular target: T1, Escherichia coli FtsE, His-tagged, full length (Escherichia coli (str. K-12, MG1655)); assay: affinity co-purification
[6] = molecular target: T2, Escherichia coli FtsE E163Q mutant, His-tagged (Escherichia coli (str. K-12, MG1655)); assay: affinity co-purification
[7] = molecular target: T3, Escherichia coli FtsEX complex (wild type) in peptidiscs (Escherichia coli (str. K-12, MG1655)) (UniProt P0A9R7+P0AC30); assay: pull-down
T3 sequence 1: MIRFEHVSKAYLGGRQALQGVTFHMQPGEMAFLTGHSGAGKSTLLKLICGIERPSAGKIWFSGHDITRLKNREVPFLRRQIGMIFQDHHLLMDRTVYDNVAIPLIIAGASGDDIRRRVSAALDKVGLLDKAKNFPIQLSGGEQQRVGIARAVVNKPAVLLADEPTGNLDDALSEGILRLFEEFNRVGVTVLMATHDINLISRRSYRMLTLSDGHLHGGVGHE
T3 sequence 2: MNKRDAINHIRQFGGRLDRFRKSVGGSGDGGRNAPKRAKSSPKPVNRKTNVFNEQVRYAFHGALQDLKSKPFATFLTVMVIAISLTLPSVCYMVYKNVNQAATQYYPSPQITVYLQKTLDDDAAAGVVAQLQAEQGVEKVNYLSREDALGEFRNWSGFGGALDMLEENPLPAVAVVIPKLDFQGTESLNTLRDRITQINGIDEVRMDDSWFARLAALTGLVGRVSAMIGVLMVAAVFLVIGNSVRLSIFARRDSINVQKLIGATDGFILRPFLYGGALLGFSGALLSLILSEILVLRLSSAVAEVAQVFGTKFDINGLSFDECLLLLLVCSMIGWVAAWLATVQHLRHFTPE

[8] = molecular target: T4, Escherichia coli FtsE^E163QX complex in peptidiscs (Escherichia coli (str. K-12, MG1655)) (UniProt P0A9R7+P0AC30); assay: pull-down
T4 sequence 1: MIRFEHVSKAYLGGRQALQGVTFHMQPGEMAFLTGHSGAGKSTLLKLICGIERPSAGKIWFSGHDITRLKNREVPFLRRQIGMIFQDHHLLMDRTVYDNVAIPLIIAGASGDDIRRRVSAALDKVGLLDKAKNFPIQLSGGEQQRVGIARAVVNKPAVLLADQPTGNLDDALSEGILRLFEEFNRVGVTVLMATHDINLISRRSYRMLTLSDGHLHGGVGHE
T4 sequence 2: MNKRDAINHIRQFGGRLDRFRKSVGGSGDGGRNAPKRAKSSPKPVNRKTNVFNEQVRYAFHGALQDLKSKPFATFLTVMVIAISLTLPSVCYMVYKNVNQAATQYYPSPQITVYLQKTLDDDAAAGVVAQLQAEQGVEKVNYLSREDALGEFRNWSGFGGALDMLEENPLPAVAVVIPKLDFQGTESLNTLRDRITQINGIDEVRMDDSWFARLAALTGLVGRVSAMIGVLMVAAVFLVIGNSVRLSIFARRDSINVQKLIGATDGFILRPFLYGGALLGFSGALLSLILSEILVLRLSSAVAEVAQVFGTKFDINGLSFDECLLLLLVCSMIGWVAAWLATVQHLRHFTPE

[9] = molecular target: T4, Escherichia coli FtsE^E163QX complex in peptidiscs (Escherichia coli (str. K-12, MG1655)); assay: cryo-EM structure
[10] = molecular target: T3, Escherichia coli FtsEX complex (wild type) in peptidiscs (Escherichia coli (str. K-12, MG1655)); assay: affinity co-purification
[11] = molecular target: T5, Escherichia coli FtsE, His-tagged, full length (Escherichia coli (str. K-12, MG1655)), P0A9R7; assay: cryo-EM structure; settings: remark: other sources report otherwise
T5 chain: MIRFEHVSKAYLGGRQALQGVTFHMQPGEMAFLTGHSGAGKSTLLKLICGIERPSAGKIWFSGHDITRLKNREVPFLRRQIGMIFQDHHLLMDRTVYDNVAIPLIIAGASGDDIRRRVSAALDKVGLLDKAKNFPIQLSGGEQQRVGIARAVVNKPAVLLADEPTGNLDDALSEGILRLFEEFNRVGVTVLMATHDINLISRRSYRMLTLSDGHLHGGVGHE

[12] = molecular target: T6, Escherichia coli FtsE^E163QX/EnvC complex in peptidiscs (Escherichia coli (str. K-12, MG1655) | Escherichia coli) (UniProt P0A9R7+P0AC30+P37690); assay: pull-down
T6 sequence 1: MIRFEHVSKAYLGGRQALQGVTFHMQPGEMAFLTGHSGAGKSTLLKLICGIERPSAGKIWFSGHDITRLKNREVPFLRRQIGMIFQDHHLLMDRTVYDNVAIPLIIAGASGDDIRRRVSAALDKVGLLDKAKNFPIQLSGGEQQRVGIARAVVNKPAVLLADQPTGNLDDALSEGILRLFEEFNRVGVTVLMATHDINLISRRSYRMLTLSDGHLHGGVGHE
T6 sequence 2: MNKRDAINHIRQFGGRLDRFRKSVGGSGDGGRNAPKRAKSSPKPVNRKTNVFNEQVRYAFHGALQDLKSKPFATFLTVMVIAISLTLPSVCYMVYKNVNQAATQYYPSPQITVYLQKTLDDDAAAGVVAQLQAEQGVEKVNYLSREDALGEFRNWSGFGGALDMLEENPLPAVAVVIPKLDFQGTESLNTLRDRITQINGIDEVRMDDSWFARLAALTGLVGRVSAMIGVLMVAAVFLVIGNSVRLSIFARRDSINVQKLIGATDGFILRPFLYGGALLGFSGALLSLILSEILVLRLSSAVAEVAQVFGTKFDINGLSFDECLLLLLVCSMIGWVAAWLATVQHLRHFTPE
T6 sequence 3: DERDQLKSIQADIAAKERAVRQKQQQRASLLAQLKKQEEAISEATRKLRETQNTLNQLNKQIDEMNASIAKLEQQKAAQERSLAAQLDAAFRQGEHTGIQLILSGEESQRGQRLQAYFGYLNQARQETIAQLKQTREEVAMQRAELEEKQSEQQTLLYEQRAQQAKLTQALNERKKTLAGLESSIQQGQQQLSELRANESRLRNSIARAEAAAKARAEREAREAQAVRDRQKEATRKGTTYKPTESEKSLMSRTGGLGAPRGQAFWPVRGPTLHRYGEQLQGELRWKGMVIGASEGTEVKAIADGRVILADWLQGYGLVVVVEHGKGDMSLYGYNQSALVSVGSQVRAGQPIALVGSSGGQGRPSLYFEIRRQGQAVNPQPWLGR

[13] = molecular target: T6, Escherichia coli FtsE^E163QX/EnvC complex in peptidiscs (Escherichia coli (str. K-12, MG1655) | Escherichia coli); assay: negative-staining electron microscopy
[14] = molecular target: T7, Pseudomonas aeruginosa FtsE (Pseudomonas aeruginosa ATCC 47085D); assay: SEC
T7 sequence: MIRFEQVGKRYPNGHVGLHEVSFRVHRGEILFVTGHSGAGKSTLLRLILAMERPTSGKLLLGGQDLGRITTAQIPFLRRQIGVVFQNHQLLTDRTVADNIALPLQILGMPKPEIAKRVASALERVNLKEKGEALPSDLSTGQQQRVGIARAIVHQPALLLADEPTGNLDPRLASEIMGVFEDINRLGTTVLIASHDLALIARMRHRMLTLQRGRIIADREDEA

B1: Escherichia coli FtsX, full length (protein, UniProt P0AC30 1-352)
chain: MNKRDAINHIRQFGGRLDRFRKSVGGSGDGGRNAPKRAKSSPKPVNRKTNVFNEQVRYAFHGALQDLKSKPFATFLTVMVIAISLTLPSVCYMVYKNVNQAATQYYPSPQITVYLQKTLDDDAAAGVVAQLQAEQGVEKVNYLSREDALGEFRNWSGFGGALDMLEENPLPAVAVVIPKLDFQGTESLNTLRDRITQINGIDEVRMDDSWFARLAALTGLVGRVSAMIGVLMVAAVFLVIGNSVRLSIFARRDSINVQKLIGATDGFILRPFLYGGALLGFSGALLSLILSEILVLRLSSAVAEVAQVFGTKFDINGLSFDECLLLLLVCSMIGWVAAWLATVQHLRHFTPE
- binding [1]: binds
- binding [2]: binds
- binding [3]: binds
- binding [4]: binds
- binding [5]: binds
- binding [6]: binds

B2: Escherichia coli EnvC (EcoEnvCΔ34) (protein, UniProt P37690 35-419)
chain: DERDQLKSIQADIAAKERAVRQKQQQRASLLAQLKKQEEAISEATRKLRETQNTLNQLNKQIDEMNASIAKLEQQKAAQERSLAAQLDAAFRQGEHTGIQLILSGEESQRGQRLQAYFGYLNQARQETIAQLKQTREEVAMQRAELEEKQSEQQTLLYEQRAQQAKLTQALNERKKTLAGLESSIQQGQQQLSELRANESRLRNSIARAEAAAKARAEREAREAQAVRDRQKEATRKGTTYKPTESEKSLMSRTGGLGAPRGQAFWPVRGPTLHRYGEQLQGELRWKGMVIGASEGTEVKAIADGRVILADWLQGYGLVVVVEHGKGDMSLYGYNQSALVSVGSQVRAGQPIALVGSSGGQGRPSLYFEIRRQGQAVNPQPWLGR
- binding [7]: binds
- binding [8]: binds
- binding [9]: binds
- binding [10]: binds

B3: Escherichia coli FtsE, His-tagged, full length, P0A9R7 1-222 (protein)
chain: MIRFEHVSKAYLGGRQALQGVTFHMQPGEMAFLTGHSGAGKSTLLKLICGIERPSAGKIWFSGHDITRLKNREVPFLRRQIGMIFQDHHLLMDRTVYDNVAIPLIIAGASGDDIRRRVSAALDKVGLLDKAKNFPIQLSGGEQQRVGIARAVVNKPAVLLADEPTGNLDDALSEGILRLFEEFNRVGVTVLMATHDINLISRRSYRMLTLSDGHLHGGVGHE
- binding [11]: binds

B4: Escherichia coli AmiB (EcoAmiBΔ22) (enzyme, UniProt P26365 23-445)
chain: ATLSDIQVSNGNQQARITLSFIGDPDYAFSHQSKRTVALDIKQTGVIQGLPLLFSGNNLVKAIRSGTPKDAQTLRLVVDLTENGKTEAVKRQNGSNYTVVFTINADVPPPPPPPPVVAKRVETPAVVAPRVSEPARNPFKTESNRTTGVISSNTVTRPAARATANTGDKIIIAIDAGHGGQDPGAIGPGGTREKNVTIAIARKLRTLLNDDPMFKGVLTRDGDYFISVMGRSDVARKQNANFLVSIHADAAPNRSATGASVWVLSNRRANSEMASWLEQHEKQSELLGGAGDVLANSQSDPYLSQAVLDLQFGHSQRVGYDVATSMISQLQRIGEIHKRRPEHASLGVLRSPDIPSVLVETGFISNNSEERLLASDDYQQQLAEAIYKGLRNYFLAHPMQSAPQGATAQTASTVTTPDRTLPN
- binding [12]: binds
- binding [13]: binds

B5: Pseudomonas aeruginosa FtsX (protein, UniProt A0A072ZG76 1-335)
chain: MSANDLPRGPEEGAPERKTREKPSQEQTDWSGSFSAYLESHRASLVDSLRRLFGHPFGSFFTCLVMGITLSLPMGLSLLLNNVERLGGSWQRAAQISLFLDLKTSENQGQDLREQIERLPDVIEAQLISREQALSELQEQSGLGEALKELPENPLPPVISVTPKQIDRAGLEALRQQLAELPHVQQAQLDLVWVERLSAILKLGERFVFGLTILLVLTLLLVVGNTIRLHIENRRNEIEVIKLVGGTDGYVRRPFLYMGALYGLGAGILSWALLAYSLNWLNGSVVNLSGLYGSDFGLQGVPLDDGLSLTVGAVLLGWVGAWLAVARHLRELAPR
- binding [14]: binds
